Results on five substances are retold here after PMC11189624.

Changes are numbered by the printed parent chain. These are yes or no findings as the source states them, for the method shown. For some of these results: Binding calls can cover weak binding; strength is not graded here. Where a sequence is shown, tags or fusion partners need not be part of it.

In assay [1] the target is T1, GST-Mlph-ABD (the GST-tagged ABD of Mlph, residues 401–590) (mouse) (UniProt Q91V27).
T1 sequence: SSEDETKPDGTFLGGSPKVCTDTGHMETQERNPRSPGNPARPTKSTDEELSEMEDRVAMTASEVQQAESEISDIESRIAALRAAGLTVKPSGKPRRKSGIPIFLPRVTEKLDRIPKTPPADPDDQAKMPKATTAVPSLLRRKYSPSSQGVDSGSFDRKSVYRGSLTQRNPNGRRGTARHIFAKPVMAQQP
The assay is described as follows: pull-down; GST pulldown: 2 uM GST-Mlph-ABD (or its variants) on GSH-Sepharose with 4 uM Flag-Myo5a-MTD or its truncations; Pulldown Buffer-I (5 mM Tris-HCl pH 7.5, 100 mM NaCl, 1 mM DTT, 1 mM EGTA, 0.1% NP-40), 4 °C, 2 hr; eluted by GSH, Western blot with anti-Flag; also run at 300 and 500 mM NaCl (less pulled down); both purified.

For assay [2], the target named is T1, GST-Mlph-ABD (the GST-tagged ABD of Mlph, residues 401–590) (mouse). The assay is described as follows: pull-down; GST pulldown of GST-Mlph-ABD and Flag-Mlph-EFBD in the presence of Flag-Myo5a-MTD; Western blot with anti-Flag; both purified.
The target of assay [3] is T2, GST-Mlph-ΔRBD (residues 148–590) (mouse) (UniProt Q91V27).
T2 sequence: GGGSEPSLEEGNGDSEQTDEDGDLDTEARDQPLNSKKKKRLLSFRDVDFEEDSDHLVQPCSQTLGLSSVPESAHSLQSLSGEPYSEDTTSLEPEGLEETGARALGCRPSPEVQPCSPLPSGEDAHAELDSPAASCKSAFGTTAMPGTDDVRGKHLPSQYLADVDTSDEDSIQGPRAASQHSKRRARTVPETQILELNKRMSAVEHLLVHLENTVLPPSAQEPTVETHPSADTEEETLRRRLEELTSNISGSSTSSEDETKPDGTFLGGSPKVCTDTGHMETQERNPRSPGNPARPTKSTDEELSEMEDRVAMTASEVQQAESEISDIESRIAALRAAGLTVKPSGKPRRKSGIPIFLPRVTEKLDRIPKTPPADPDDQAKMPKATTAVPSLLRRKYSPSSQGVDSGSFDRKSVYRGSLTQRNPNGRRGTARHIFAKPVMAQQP
The assay is described as follows: pull-down; GST pulldown: 2 uM GST-Mlph-ΔRBD on GSH-Sepharose with 4 uM Myo5a-MTD variants; Pulldown Buffer-II (5 mM Tris-HCl pH 7.5, 100 mM NaCl, 1 mM DTT, 1 mM EGTA), 4 °C, 2 hr; Western blot with anti-Flag; both purified. A general note: A western blot detects proteins with antibodies after separation by electrophoresis.

The target of assay [4] is T3, GST-Mlph-ABD D447A (mouse) (UniProt Q91V27).
T3 sequence: T1 sequence with D47A
The assay is described as follows: pull-down; GST pulldown: 2 uM GST-Mlph-ABD (or its variants) on GSH-Sepharose with 4 uM Flag-Myo5a-MTD or its truncations; Pulldown Buffer-I (5 mM Tris-HCl pH 7.5, 100 mM NaCl, 1 mM DTT, 1 mM EGTA, 0.1% NP-40), 4 °C, 2 hr; eluted by GSH, Western blot with anti-Flag; also run at 300 and 500 mM NaCl (less pulled down); both purified.

The target in assay [5] is T4, GST-Mlph-ABD E449A (mouse) (UniProt Q91V27).
T4 sequence: T1 sequence with E49A
Described as above.

The target in assay [6] is T5, GST-Mlph-ABD E452A (mouse) (UniProt Q91V27).
T5 sequence: T1 sequence with E52A
Described as above.

Assay [7] concerns the target T6, GST-Mlph-ABD E454A (mouse) (UniProt Q91V27).
T6 sequence: T1 sequence with E54A
The description is as above.

The target in assay [8] is T7, GST-Mlph-ABD R562A (mouse) (UniProt Q91V27).
T7 sequence: T1 sequence with R162A
Described as above.

Assay [9] deals with T8, GST-Mlph-ABD R568A (mouse) (UniProt Q91V27).
T8 sequence: T1 sequence with R168A
The description is as above.

With “Flag-Trx-Myo5a (1411–1467) (domain or fragment)”, the binding result in [1] was “binds”.
On to Flag-Myo5a-MTDΔF (domain or fragment), for which, in assay [1], the binding result was “binds”.
As to “Flag-Myo5a-MTD (residues 1106–1467), bacterial-expressed (domain or fragment)”, the binding entry in [2] is listed as “binds”; in assay [3], “binds”; in assay [1], “binds”; in [4], “binds”; in assay [5], “no binding”; in [6], “no binding”. In addition, the binding entry in [7], in assay [8] and in [9] was “binds” in each case.
As for Flag-Myo5a-MTDΔG (domain or fragment), the binding result in [1] is “no binding”.
The same measure, in the same setting: next, “Flag-Trx-Myo5a (1436–1467) (domain or fragment)”: “binds weakly”.
